Data taken from patent publication US20100152129A1 (priority 2008, published 2010).

System: Panc-1 cells
Experiment: Propidium iodide-based fluorescence cytotoxicity assay
Format: cell-based
Details: single agent
Protocol: The combination of P276-00 and Gemcitabine was screened for its synergistic effect in Panc-1 cells using propidium iodide based fluorescence cytotoxicity assay.
Test System: The Panc-1 cell line was procured from ATCC (American Tissue type Culture Collection), USA. Catalog number: CRL-1469 and the frozen vial was stored in liquid nitrogen container. Propidium iodide dye was procured from Sigma-Aldrich, USA. Catalog number: P-4170-100 mg and it was stored at 2-8° C.
Method: Panc-1 cells were seeded at a density of 2000 cells/well, in a 200 μL in tissue culture grade 96 well plate and allowed to recover for 24 hrs in a humidified 5%±0.2 CO2 incubator at 37° C.±0.5° C. After 24 hrs, 1 μL of 200 X (200 times higher than required concentration is denoted as 200×) compound (dissolved in neat DMSO), as per Table 1 or 2 was added to the wells. The final DMSO concentration was 0.5% in wells. The plate was incubated for 24 hrs in humidified 5%±0.2 CO2 incubator at 37±0.5° C.
After 24 hrs Minimum Essential Medium (MEM) from the Gemcitabine treated wells was removed and washed two times with fresh MEM and followed by addition of 200 μL of fresh MEM per well. 1 μL of 200× (200 times higher than required concentration is denoted as 200×) compound (dissolved in neat DMSO) was then added as per the Table 1 and 2 designs. The final DMSO concentration was 0.5% in wells which also served as the vehicle control for the study. After 72 hrs the plate was removed from CO2 incubator and spent MEM aspirated from the wells and supplemented with fresh MEM. This was followed by addition of 25 μL of propidium iodide (50 μg/ml in medium) per well. The same plate was frozen at −80° C. for 24 hrs and then thawed and allowed to come to room temperature. The fluorescence at a wavelength of 530 nm excitation and 620 nm emission was read.
The percent cytotoxicity was calculated using the following formula

| SMILES | Fluorescence Unit (60 nM) | Fluorescence Unit (120 nM) | Fluorescence Unit (240 nM) | Fluorescence Unit (480 nM) | Fluorescence Unit (960 nM) | Fluorescence Unit (0.1 nM) |
| --- | --- | --- | --- | --- | --- | --- |
| CN1CC[C@@H](c2c(O)cc(O)c3c(=O)cc(-c4ccccc4Cl)oc23)[C@@H]1CO.Cl (relative stereo) [P276-00, (+)-trans-2-(2-Chloro-phenyl)-5,7-dihydroxy-8-(2-hydroxy-methyl-1-methyl-pyrrolidin-3-y1)-chromen-4-one hydrochloride] | 24558 | 22768 | 22212 | 18831 | 15416 | – |
| Nc1ccn([C@@H]2O[C@H](CO)[C@@H](O)C2(F)F)c(=O)n1 [Gemcitabine, 2′, 2′-difluorodeoxycytidine] | – | – | – | – | – | 31455 |
